# This is one part of the list. Repeats are few or missing, and single values can be far off.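 Cells were imaged in 1,536-well plates, and nuclei stained with an antibody against cleaved PARP were counted against all DNA-stained nuclei to give the apoptosis fraction. Screening doses were chosen to leave most cells alive, and resting and induced cleaved-PARP levels differ strongly between cell lines.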
# Legend:
# Assay in all cases: cleaved PARP positive nuclei fraction relative to DMSO control; melanoma cells; higher = more apoptosis
# Details in all cases: library dose: low library concentration; 72 h
# 501Mel = system: 501Mel
# A101D = system: A101D
# A2058 = system: A2058
# C32 = system: C32
# CBRC008 = system: CBRC008 (line from a melanoma biopsy)
# CBRC014 = system: CBRC014 (line from a melanoma biopsy)
# CBRC016 = system: CBRC016 (line from a melanoma biopsy)
# CBRC017 = system: CBRC017 (line from a melanoma biopsy)
# COLO792 = system: COLO792
# COLO800 = system: COLO800
# COLO829 = system: COLO829
# G361 = system: G361
# IPC-298 = system: IPC-298
# IST-MEL1 = system: IST-MEL1
# LB2518-MEL = system: LB2518-MEL
# LOXIMVI = system: LOXIMVI
SMILES,cleaved PARP positive nuclei fraction (501Mel) [%],cleaved PARP positive nuclei fraction (A101D) [%],cleaved PARP positive nuclei fraction (A2058) [%],cleaved PARP positive nuclei fraction (C32) [%],cleaved PARP positive nuclei fraction (CBRC008) [%],cleaved PARP positive nuclei fraction (CBRC014) [%],cleaved PARP positive nuclei fraction (CBRC016) [%],cleaved PARP positive nuclei fraction (CBRC017) [%],cleaved PARP positive nuclei fraction (COLO792) [%],cleaved PARP positive nuclei fraction (COLO800) [%],cleaved PARP positive nuclei fraction (COLO829) [%],cleaved PARP positive nuclei fraction (G361) [%],cleaved PARP positive nuclei fraction (IPC-298) [%],cleaved PARP positive nuclei fraction (IST-MEL1) [%],cleaved PARP positive nuclei fraction (LB2518-MEL) [%],cleaved PARP positive nuclei fraction (LOXIMVI) [%]
"CCCCCCCCc1ccc(CCC(N)(CO)CO)cc1 [fingolimod] + c1cc(-c2cnn3cc(-c4ccc(OCCN5CCCCC5)cc4)cnc23)ccn1 [Dorsomorphin] (first compound 2 µM, partner dose 0.4 µM)",45.8,20.2,92,155,25.1,108,18.3,114,82.2,226,112,87.7,44.6,89.8,79.9,67.4
"CS(=O)(=O)c1ccc(C(=O)Nc2ccc(Cl)c(-c3ccccn3)c2)c(Cl)c1 [vismodegib] + O=S(=O)(c1ccccc1)N(CC(F)(F)F)c1ccc(C(O)(C(F)(F)F)C(F)(F)F)cc1 [T0901317] (first compound 1 µM, partner dose 1.4 µM)",39.4,22.4,27.5,16.9,50.9,106,24.9,105,80.7,164,115,142,71.9,41.9,73.6,59.6
"CS(=O)(=O)c1ccc(C(=O)Nc2ccc(Cl)c(-c3ccccn3)c2)c(Cl)c1 [vismodegib] + COC(=O)c1sccc1S(=O)(=O)Nc1ccc(Nc2ccccc2)cc1OC [GSK0660] (first compound 1 µM, partner dose 1 µM)",59.8,25,109,78.3,193,107,65.5,55.3,90,34.7,58.5,41.1,58,28.5,39.6,33.5
"Cn1cnc2c(F)c(Nc3ccc(Br)cc3Cl)c(C(=O)NOCCO)cc21 [selumetinib] + COc1ccc(COc2ccc(Cc3cnc(N)nc3N)cc2OC)cc1 [GW2580] (first compound 0.015 µM, partner dose 1 µM)",413,28.1,96.3,99.9,130,79.5,37.7,107,109,79.4,113,159,274,187,113,77.5
"CC1(C)CCC(c2ccc(Cl)cc2)=C(CN2CCN(c3ccc(C(=O)NS(=O)(=O)c4ccc(N[C@H](CCN5CCOCC5)CSc5ccccc5)c(S(=O)(=O)C(F)(F)F)c4)cc3)CC2)C1 + O=C(Nc1ccccc1)c1cc([N+](=O)[O-])ccc1Cl [GW9662] (first compound 0.4 µM, partner dose 2 µM)",32,58,194,119,218,362,233,423,175,295,320,214,113,103,21,102
"CCN(CC)CCNC(=O)c1c(C)[nH]c(/C=C2\C(=O)Nc3ccc(F)cc32)c1C [sunitinib] + Cc1cc([N+](=O)[O-])ccc1NS(=O)(=O)c1cc(Cl)ccc1Cl [FH535] (first compound 0.4 µM, partner dose 1 µM)",83.2,42.2,87.5,90.5,1010,132,408,196,168,81,106,241,152,715,61.4,168
"CC1(C)CCC(c2ccc(Cl)cc2)=C(CN2CCN(c3ccc(C(=O)NS(=O)(=O)c4ccc(N[C@H](CCN5CCOCC5)CSc5ccccc5)c(S(=O)(=O)C(F)(F)F)c4)cc3)CC2)C1 + O=C1NC(=O)/C(=C/c2ccc(-c3ccc(F)cc3O)o2)S1 [AS252424] (first compound 0.4 µM, partner dose 1 µM)",220,112,108,763,792,1850,238,511,552,326,84.4,162,389,226,612,157
"CCN(CC)CCNC(=O)c1c(C)[nH]c(/C=C2\C(=O)Nc3ccc(F)cc32)c1C [sunitinib] + COc1cc(N2CCC(N3CCN(C)CC3)CC2)ccc1Nc1ncc(Cl)c(Nc2ccccc2S(=O)(=O)C(C)C)n1 [NVP-TAE684] (first compound 0.4 µM, partner dose 0.08 µM)",391,62.3,53,92.5,164,84,58.4,67.1,157,189,63.5,155,219,102,92.8,137
"CC(=O)O[C@@]12CO[C@@H]1C[C@H](O)[C@@]1(C)C(=O)[C@H](O)C3=C(C)[C@@H](OC(=O)[C@H](O)[C@@H](NC(=O)OC(C)(C)C)c4ccccc4)C[C@@](O)([C@@H](OC(=O)c4ccccc4)[C@H]21)C3(C)C [Docetaxel] + CCN(CC)CCCCNc1ncc2cc(-c3cc(OC)cc(OC)c3)c(NC(=O)NC(C)(C)C)nc2n1 [PD173074] (first compound 0.0001 µM, partner dose 0.1 µM)",96.3,53.9,3690,401,372,147,147,130,911,191,201,626,488,256,180,44.8
"C[C@@H](N)c1ccc(C(=O)Nc2ccnc3[nH]ccc23)cc1 + COc1ccc(-c2ccc3c(N4CCOCC4)nc(N4C[C@@H](C)O[C@@H](C)C4)nc3n2)cc1CO [KU0063794] (first compound 0.4 µM, partner dose 0.02 µM)",64.2,29.7,163,249,45.3,95.3,69.7,204,118,30.2,15.7,61.7,63.5,170,72.8,508
"Cn1sc(=O)n(Cc2ccccc2)c1=O + c1cc(-c2cnn3cc(-c4ccc(OCCN5CCCCC5)cc4)cnc23)ccn1 [Dorsomorphin] (first compound 0.4 µM, partner dose 0.4 µM)",69.5,44.2,173,76.4,84.1,98.2,41.7,81.8,119,80,147,111,139,58.3,73.9,61.5
"C[C@]1(O)C[C@@H](c2nc(-c3ccc4ccc(-c5ccccc5)nc4c3)c3c(N)nccn32)C1 + CCc1ccc(CCOc2ccc(CC3SC(=O)NC3=O)cc2)nc1 [pioglitazone] (first compound 0.4 µM, partner dose 2 µM)",235,17.9,40.1,38.5,121,111,36.4,133,165,25.3,78.1,83,65.4,92,233,44
"NC1(c2ccc(-c3nc4ccn5c(=O)[nH]nc5c4cc3-c3ccccc3)cc2)CCC1 + O=c1cc(-c2cccc3c2Sc2ccccc2S3)oc(N2CCOCC2)c1 [KU55933] (first compound 0.4 µM, partner dose 1 µM)",61.3,28.4,61.2,171,188,77,35.1,70.5,134,102,154,44.6,89.6,104,61.8,136
"CCCCCCCCc1ccc(CCC(N)(CO)CO)cc1 [fingolimod] + Oc1cc(-c2nc(-c3ccccc3)[nH]c2-c2ccncc2)ccc1Cl [L779450] (first compound 2 µM, partner dose 0.2 µM)",106,20.7,118,45.7,57.3,92.9,738,94.5,117,92.8,50.5,111,116,107,142,218
"CN(c1ncccc1CNc1nc(Nc2ccc3c(c2)CC(=O)N3)ncc1C(F)(F)F)S(C)(=O)=O + O=C(O)C(=O)Nc1sc2c(c1C(=O)O)CCNC2 [TCS401] (first compound 0.08 µM, partner dose 1.66667 µM)",66.6,14.2,166,360,129,88.1,102,92.5,79.4,204,55.4,85.1,82.7,155,84.8,109
"COc1ccc(C2=N[C@@H](c3ccc(Cl)cc3)[C@@H](c3ccc(Cl)cc3)N2C(=O)N2CCNC(=O)C2)c(OC(C)C)c1 [Nutlin-3] + O=S(=O)(c1ccccc1)N(CC(F)(F)F)c1ccc(C(O)(C(F)(F)F)C(F)(F)F)cc1 [T0901317] (first compound 0.1 µM, partner dose 1.4 µM)",118,28.9,93.1,117,59.8,129,45.9,113,78,93,190,101,211,40.5,83.1,84.1
"C[C@@H](N)c1ccc(C(=O)Nc2ccnc3[nH]ccc23)cc1 + CCN(CC)CCCCNc1ncc2cc(-c3cc(OC)cc(OC)c3)c(NC(=O)NC(C)(C)C)nc2n1 [PD173074] (first compound 0.4 µM, partner dose 0.1 µM)",111,10.2,121,45.8,112,136,114,165,237,244,149,109,62.1,83.5,224,136
"CC(=O)O[C@@]12CO[C@@H]1C[C@H](O)[C@@]1(C)C(=O)[C@H](O)C3=C(C)[C@@H](OC(=O)[C@H](O)[C@@H](NC(=O)OC(C)(C)C)c4ccccc4)C[C@@](O)([C@@H](OC(=O)c4ccccc4)[C@H]21)C3(C)C [Docetaxel] + COc1cc(N2CCC(N3CCN(C)CC3)CC2)ccc1Nc1ncc(Cl)c(Nc2ccccc2S(=O)(=O)C(C)C)n1 [NVP-TAE684] (first compound 0.0001 µM, partner dose 0.08 µM)",93.6,44.3,4130,268,542,177,266,139,320,210,206,1120,313,141,193,74

# Looked up one by one from above (two):
SMILES,cleaved PARP positive nuclei fraction (501Mel) [%],cleaved PARP positive nuclei fraction (A101D) [%],cleaved PARP positive nuclei fraction (A2058) [%],cleaved PARP positive nuclei fraction (C32) [%],cleaved PARP positive nuclei fraction (CBRC008) [%],cleaved PARP positive nuclei fraction (CBRC014) [%],cleaved PARP positive nuclei fraction (CBRC016) [%],cleaved PARP positive nuclei fraction (CBRC017) [%],cleaved PARP positive nuclei fraction (COLO792) [%],cleaved PARP positive nuclei fraction (COLO800) [%],cleaved PARP positive nuclei fraction (COLO829) [%],cleaved PARP positive nuclei fraction (G361) [%],cleaved PARP positive nuclei fraction (IPC-298) [%],cleaved PARP positive nuclei fraction (IST-MEL1) [%],cleaved PARP positive nuclei fraction (LB2518-MEL) [%],cleaved PARP positive nuclei fraction (LOXIMVI) [%]
"C[C@@H](N)c1ccc(C(=O)Nc2ccnc3[nH]ccc23)cc1 + CCN(CC)CCCCNc1ncc2cc(-c3cc(OC)cc(OC)c3)c(NC(=O)NC(C)(C)C)nc2n1 [PD173074] (first compound 0.4 µM, partner dose 0.1 µM)",111,10.2,121,45.8,112,136,114,165,237,244,149,109,62.1,83.5,224,136
"C[C@]1(O)C[C@@H](c2nc(-c3ccc4ccc(-c5ccccc5)nc4c3)c3c(N)nccn32)C1 + CCc1ccc(CCOc2ccc(CC3SC(=O)NC3=O)cc2)nc1 [pioglitazone] (first compound 0.4 µM, partner dose 2 µM)",235,17.9,40.1,38.5,121,111,36.4,133,165,25.3,78.1,83,65.4,92,233,44
